According to PubChem BioAssay AID493014 (National Center for Advancing Translational Sciences (NCATS), 2011):
The list shows a part of the results. The main result of the screen is listed elsewhere. These columns were measured beside it and carry no call. Most of these compounds were active or inconclusive in the main read-out, so they are no random draw. Words in brackets tell the shape of the fitted curve; partial curves, single points and poor fits give uncertain potencies.

Experiment: qHTS Assay to Find Inhibitors of Chronic Active B-Cell Receptor Signaling
Conditions: ABC-DLBCL IkBa-CBG/CBR reporter, luminescence ratio (green luciferase fused to IkBa over red control in TMD8 lymphoma cells), 4 h
Summary of the method: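 Cell line TMD8 (human ABC DLBCL), stably expressing tet-inducible CBG68-IkBa fusion and CBR; IMDM/0.5% FBS; cpd up to 46 uM; dox induction, 4 h, 37C/5% CO2; dual luminescence; green/red ratio; MG132 control.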

[1] = measured here: CBR red luminescence, cell number
[2] = measured here: IkBa-CBG green luminescence

SMILES | AC50 [1] | AC50 [2]
CN(C)c1ccc(NC(=O)Nc2cccc(Cl)c2)cc1 | 9.2 µM [falling, partial curve, poor fit] | 
O=C(O)CNC(=O)c1ccccc1F | 3.98 µM [falling, full curve] | 
Cc1cccc(Nc2nc(NCC3CCCO3)nc(N)c2[N+](=O)[O-])c1 (stereo not drawn) | 32.6 µM [rising, single point] | 
Cc1cc(C(=O)N2CCC(C(=O)O)CC2)c(C(F)(F)F)o1 | 14.1 µM [falling, partial curve, poor fit] | 
CCN1CCN(c2ccc(S(=O)(=O)N3CCCCC3)cc2NC(=O)Cc2c(Cl)cccc2Cl)CC1 | 0.447 µM [rising, partial curve, poor fit] | 
Cc1cc(OCCOCCNC(C)C)cc(C)c1Cl | 2.06 µM [falling, full curve] | 
CN(C)S(=O)(=O)Oc1cccc(C(=O)Nc2ccc(Cl)c(Cl)c2)c1 | 10 µM [falling, partial curve] | 
Cc1ccc(-c2csc(NC(=O)Cn3cnc4c3c(=O)n(C)c(=O)n4C)n2)cc1C | 1.3 µM [falling, full curve, poor fit] | 
O=C(c1cnn2c1NC(c1ccco1)CC2C(F)(F)F)N1CCN(c2cccc(Cl)c2)CC1 (stereo not drawn) | 2.06 µM [falling, partial curve, poor fit] | 
O=C(Nc1cccc(Cn2cccn2)c1)c1cc2c(s1)CCCC2 | 29.1 µM [falling, single point] | 
CC(=O)Nc1ccc(-n2nnnc2SCC(=O)Nc2cccc(NC(=O)c3ccco3)c2)cc1 | 1.26 µM [falling, full curve] | 
COC(=O)N(NC(=O)C(O)(CCC(C)C)CCC(C)C)c1ccccc1 | 18.4 µM [falling, partial curve] | 
COc1cccc2c1C(=O)c1c(O)c3c(c(O)c1C2=O)C[C@@](O)(C(=O)CO)C[C@@H]3O[C@H]1C[C@H](N)[C@H](O)[C@H](C)O1 | 0.146 µM [falling, full curve] | 4.11 µM [rising, partial curve]
COC(=O)c1ccccc1NC(=S)NC(=O)COc1ccc(C(C)C)cc1 | 6.51 µM [rising, single point] | 
COC(=O)N/N=C/c1c(C)c(C(=O)c2ccc(F)cc2)n2ccccc12 | 0.82 µM [falling, full curve, poor fit] | 
Cc1cc2nc(N3CCN(C(=O)c4ccco4)CC3)sc2cc1C | 1.64 µM [rising, partial curve, poor fit] | 
CCN(CC(O)Cn1c2ccccc2c2ccccc21)S(=O)(=O)c1ccc(F)cc1 (stereo not drawn) | 7.31 µM [falling, partial curve] | 4.11 µM [rising, full curve, poor fit]
COc1ccc(Cl)cc1NC(=O)CN1C(=O)CC(C)S(=O)(=O)c2ccccc21 (stereo not drawn) | 35.5 µM [falling, partial curve, poor fit] | 
O=C(COc1ccc(Cl)cc1Cl)NCCC1=CCCCC1 | 10 µM [rising, partial curve, poor fit] | 
CCOc1ccc2nc(SCC(=O)c3ccc(C)s3)sc2c1 | 3.66 µM [rising, single point] | 
O=C(CCN1C(=O)/C(=C/c2ccc3c(c2)OCO3)SC1=S)Nc1cccc(C(=O)O)c1 | 5.62 µM [falling, partial curve] | 

SMILES | AC50 [1] | AC50 [2]
COc1ccccc1CNC(=O)CC(C)c1ccccc1 (stereo not drawn) | 0.708 µM [rising, full curve, poor fit] | 
CCC(=O)Nc1ccc(C(=O)c2ccccc2)cc1 | 35.5 µM [falling, single point] | 
CN(Cc1ccccc1)C(=S)NC(=O)c1ccccc1 | 35.5 µM [rising, single point] | 
COc1cc(NC(=O)CN2CCCCC2)c(C)cc1[N+](=O)[O-] | 32.6 µM [rising, single point] | 
Cc1nnc(SCC(=O)Nc2ncc(Cl)cc2Cl)n1Cc1ccccc1 | 23.1 µM [rising, single point] | 
CC1=C(C(=O)OC(C)C)C(C)NC(=O)N1 (stereo not drawn) | 20 µM [rising, partial curve, poor fit] | 
CCOC(=O)c1csc(COc2ccccc2Cl)n1 | 0.0891 µM [rising, full curve, poor fit] | 
COc1ccc(C2C(C(=O)c3ccccc3)N3c4ccccc4C=CC3C2[N+](=O)[O-])cc1 (stereo not drawn) | 6.31 µM [rising, single point] | 
CCOc1ccc(-c2[nH]nc3c2C(c2ccc(O)cc2)C(C#N)=C(N)O3)cc1 (stereo not drawn) | 29.1 µM [falling, single point] | 
OC(COc1cccc2ccccc12)CN1CCN(c2ccccn2)CC1 (stereo not drawn) | 25.1 µM [falling, single point] | 
CC(=O)c1sc(NC(=O)CCN2C(=O)C3CC=CCC3C2=O)nc1-c1ccccc1 (stereo not drawn) | 5.8 µM [falling, partial curve, poor fit] | 
CCOc1ccccc1OCC(=O)Nc1ccc(S(=O)(=O)N(C)C)cc1 | 6.31 µM [falling, partial curve, poor fit] | 
COCCn1nnnc1C(C(C)C)N(Cc1ccccc1)Cc1cc2cc(OC)ccc2[nH]c1=O (stereo not drawn) | 16.4 µM [rising, partial curve] | 14.6 µM [falling, partial curve]
COc1cc(SC)ccc1C(=O)NNC(=O)c1cc(C)oc1C | 16.4 µM [falling, partial curve] | 
CN1CCC(=NNC(=O)C(=O)Nc2ccccc2F)CC1 | 8.91 µM [falling, partial curve] | 
Cc1cc(CNC(=O)c2ccc(C)c([N+](=O)[O-])c2)c2ccccc2n1 | 22.4 µM [rising, single point] | 22.4 µM [falling, single point]
O=C(Nc1ccc2c(c1)OCCO2)NC1CCCCC1 | 25.9 µM [falling, partial curve, poor fit] | 
Cc1cc(C)nc(N/N=C/c2c(C)oc3ccccc23)n1 | 14.1 µM [rising, partial curve, poor fit] | 
N#Cc1ccccc1COC(=O)c1ccc2c(c1)OCO2 | 29.1 µM [rising, single point] | 
Cc1ccsc1/C=N/NC(=O)c1ccncc1 |  | 22.4 µM [falling, single point]
CCOC(=O)N/N=C/c1cn(Cc2ccc(F)cc2)c2ccccc12 | 35.5 µM [rising, single point] | 

SMILES | AC50 [1] | AC50 [2]
COc1ccc2c(c1)[C@H]1[C@H](CO2)[C@H](c2ccccc2)[C@]2(C)C(=O)Nc3cc(F)c(F)cc3C(=O)N12 | 2.91 µM [falling, full curve] | 
O=C(NCc1ccccc1)C(=O)Nc1cccc(C(=O)O)c1 | 0.631 µM [falling, full curve] | 
Fc1ccc(CN2CCCN(C(=S)Nc3ccc(F)cc3)CC2)cc1 | 25.1 µM [falling, single point] | 
O=C(CCC(=O)Nc1cccc([N+](=O)[O-])c1)NCc1ccccc1 | 0.562 µM [rising, full curve, poor fit] | 
COc1cc2cc(/C=C/C(=O)c3ccco3)c(Cl)nc2cc1OC | 1.16 µM [falling, full curve, poor fit] | 
O=C(O)CC(NNC(=O)c1ccccc1)C(=O)Nc1ccc([N+](=O)[O-])cc1 (stereo not drawn) | 12.6 µM [falling, partial curve, poor fit] | 
Cc1cccc(N(C)S(=O)(=O)c2ccc(-c3cc(C)no3)s2)c1 | 7.08 µM [rising, full curve] | 8.91 µM [falling, partial curve]
COc1cc(OC)cc(C(=O)NCC(=O)N2CCC(C)CC2)c1 | 35.5 µM [falling, single point] | 
Nc1nn(-c2ccccc2)c(N)c1N=Nc1ccccc1 | 8.2 µM [falling, partial curve] | 
Cc1ccc(S(=O)(=O)N2CCOCC2)cc1NC(=O)CN1CCC(Cc2ccccc2)CC1 | 17.8 µM [falling, single point] | 
COc1ccc(-c2nc3c4ccccc4n(CC(=O)Nc4ccc(C(C)C)cc4)c(=O)n3n2)cc1 | 10 µM [rising, partial curve, poor fit] | 
O=C(Nc1nccs1)c1ccc(-c2ccc(F)cc2)o1 | 14.1 µM [falling, single point] | 
O=C(c1cccc(-c2nnc(-c3ccccc3)o2)c1)N1CCCCC1 | 4.11 µM [rising, single point] | 
CCn1nnc(NC(=O)c2cc3ccccc3o2)n1 | 29.1 µM [falling, single point] | 
COC(=O)C1=C(C)NC(C)=C(C(=O)OC)C1c1ccc(-c2cccc([N+](=O)[O-])c2)o1 | 35.5 µM [falling, single point] | 35.5 µM [rising, partial curve, poor fit]
Cc1nn(-c2nc3ccccc3[nH]2)c(=O)c2ccccc12 | 1.26 µM [falling, full curve] | 
Cc1ccccc1OCC(O)Cn1c(=N)n(Cc2ccccc2)c2ccccc21 (stereo not drawn) | 15.8 µM [falling, single point] | 
CC1Oc2ccccc2C(=O)N(CC(=O)c2ccc3c(c2)OCCO3)C1=O (stereo not drawn) | 28.2 µM [falling, single point] | 
CC(=O)Nc1cccc(NC(=O)CSc2ncc(-c3ccc(Cl)cc3)n2Cc2ccco2)c1 | 25.9 µM [falling, partial curve] | 
COc1cccc(C(=O)Nc2nc3ccccc3[nH]2)c1 | 3.26 µM [falling, full curve] | 

12 compounds already listed, arranged by count of non-hydrogen atoms, falling:
SMILES | AC50 [1] | AC50 [2]
COc1ccc2c(c1)[C@H]1[C@H](CO2)[C@H](c2ccccc2)[C@]2(C)C(=O)Nc3cc(F)c(F)cc3C(=O)N12 | 2.91 µM [falling, full curve] | 
Cc1ccc(S(=O)(=O)N2CCOCC2)cc1NC(=O)CN1CCC(Cc2ccccc2)CC1 | 17.8 µM [falling, single point] | 
COC(=O)C1=C(C)NC(C)=C(C(=O)OC)C1c1ccc(-c2cccc([N+](=O)[O-])c2)o1 | 35.5 µM [falling, single point] | 35.5 µM [rising, partial curve, poor fit]
Cc1ccccc1OCC(O)Cn1c(=N)n(Cc2ccccc2)c2ccccc21 (stereo not drawn) | 15.8 µM [falling, single point] | 
O=C(O)CC(NNC(=O)c1ccccc1)C(=O)Nc1ccc([N+](=O)[O-])cc1 (stereo not drawn) | 12.6 µM [falling, partial curve, poor fit] | 
Fc1ccc(CN2CCCN(C(=S)Nc3ccc(F)cc3)CC2)cc1 | 25.1 µM [falling, single point] | 
COc1cc2cc(/C=C/C(=O)c3ccco3)c(Cl)nc2cc1OC | 1.16 µM [falling, full curve, poor fit] | 
Cc1cccc(N(C)S(=O)(=O)c2ccc(-c3cc(C)no3)s2)c1 | 7.08 µM [rising, full curve] | 8.91 µM [falling, partial curve]
O=C(NCc1ccccc1)C(=O)Nc1cccc(C(=O)O)c1 | 0.631 µM [falling, full curve] | 
Nc1nn(-c2ccccc2)c(N)c1N=Nc1ccccc1 | 8.2 µM [falling, partial curve] | 
COc1cccc(C(=O)Nc2nc3ccccc3[nH]2)c1 | 3.26 µM [falling, full curve] | 
CCn1nnc(NC(=O)c2cc3ccccc3o2)n1 | 29.1 µM [falling, single point] | 

3 entries already listed, sorted by SMILES length, descending.
SMILES | AC50 [1] | AC50 [2]
Cc1cccc(N(C)S(=O)(=O)c2ccc(-c3cc(C)no3)s2)c1 | 7.08 µM [rising, full curve] | 8.91 µM [falling, partial curve]
COc1cc2cc(/C=C/C(=O)c3ccco3)c(Cl)nc2cc1OC | 1.16 µM [falling, full curve, poor fit] | 
CCOC(=O)c1csc(COc2ccccc2Cl)n1 | 0.0891 µM [rising, full curve, poor fit] | 
